Experimental data from publication PMC8490984.
These are yes or no findings as the source states them, for the method shown. Binding seen in cells or lysates may run through a third protein. Here binding means that the protein was enriched with, or labelled near, the bait; the list need not be complete.

By UniProt entry, the sequences of proteins in these tests, tags left out.
UniProt P32495: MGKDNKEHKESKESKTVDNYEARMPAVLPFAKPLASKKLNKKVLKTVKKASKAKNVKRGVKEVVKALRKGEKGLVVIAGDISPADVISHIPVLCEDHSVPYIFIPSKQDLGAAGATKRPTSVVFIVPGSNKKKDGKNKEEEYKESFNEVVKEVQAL
UniProt P28007: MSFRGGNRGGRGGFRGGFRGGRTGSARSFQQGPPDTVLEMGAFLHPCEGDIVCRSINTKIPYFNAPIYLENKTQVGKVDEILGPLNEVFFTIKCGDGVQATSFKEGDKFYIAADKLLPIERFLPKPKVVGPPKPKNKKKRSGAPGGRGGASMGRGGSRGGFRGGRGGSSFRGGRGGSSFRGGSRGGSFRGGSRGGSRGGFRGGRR
UniProt P33322: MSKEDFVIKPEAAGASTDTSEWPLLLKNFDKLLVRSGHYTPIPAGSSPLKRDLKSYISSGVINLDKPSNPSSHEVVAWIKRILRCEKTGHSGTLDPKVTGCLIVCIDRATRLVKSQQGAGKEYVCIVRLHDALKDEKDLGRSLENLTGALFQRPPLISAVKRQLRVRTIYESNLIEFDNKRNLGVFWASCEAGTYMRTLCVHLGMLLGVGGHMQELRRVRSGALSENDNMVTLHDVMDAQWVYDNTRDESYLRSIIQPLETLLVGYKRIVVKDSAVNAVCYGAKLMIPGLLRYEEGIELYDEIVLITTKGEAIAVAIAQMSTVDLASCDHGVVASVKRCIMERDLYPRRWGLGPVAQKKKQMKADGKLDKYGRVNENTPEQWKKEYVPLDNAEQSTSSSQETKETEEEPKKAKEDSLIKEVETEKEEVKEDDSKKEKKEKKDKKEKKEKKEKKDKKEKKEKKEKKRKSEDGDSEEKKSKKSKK

B1: Imp4 (protein, UniProt P53941 1-290)
chain: MLRRQARERREYLYRKAQELQDSQLQQKRQIIKQALAQGKPLPKELAEDESLQKDFRYDQSLKESEEADDLQVDDEYAATSGIMDPRIIVTTSRDPSTRLSQFAKEIKLLFPNAVRLNRGNYVMPNLVDACKKSGTTDLVVLHEHRGVPTSLTISHFPHGPTAQFSLHNVVMRHDIINAGNQSEVNPHLIFDNFTTALGKRVVCILKHLFNAGPKKDSERVITFANRGDFISVRQHVYVRTREGVEIAEVGPRFEMRLFELRLGTLENKDADVEWQLRRFIRTANKKDYL
B2: Mpp10 (protein, UniProt P47083 1-593)
chain: MSELFGVLKSNAGRIILKDPSATSKDVKAYIDSVINTCKNGSITKKAELDEITVDGLDANQVWWQVKLVLDSIDGDLIQGIQELKDVVTPSHNLSDGSTLNSSSGEESELEEAESVFKEKQMLSADVSEIEEQSNDSLSENDEEPSMDDEKTSAEAAREEFAEEKRISSGQDERHSSPDPYGINDKFFDLEKFNRDTLAAEDSNEASEGSEDEDIDYFQDMPSDDEEEEAIYYEDFFDKPTKEPVKKHSDVKDPKEDEELDEEEHDSAMDKVKLDLFADEEDEPNAEGVGEASDKNLSSFEKQQIEIRKQIEQLENEAVAEKKWSLKGEVKAKDRPEDALLTEELEFDRTAKPVPVITSEVTESLEDMIRRRIQDSNFDDLQRRTLLDITRKSQRPQFELSDVKSSKSLAEIYEDDYTRAEDESALSEELQKAHSEISELYANLVYKLDVLSSVHFVPKPASTSLEIRVETPTISMEDAQPLYMSNASSLAPQEIYNVGKAEKDGEIRLKNGVAMSKEELTREDKNRLRRALKRKRSKANLPNVNKRSKRNDVVDTLSKAKNITVINQKGEKKDVSGKTKKSRSGPDSTNIKL

What follows are molecules tested against myc-tagged Nhp2 (S. cerevisiae) (UniProt P32495) (assay: affinity purification with mass spectrometry; IP of Nhp2-myc with anti-myc antibody on Protein G Dynabeads from cleared yeast lysate (1 mg/ml), overnight at 4°C, washes in TBS; label-free quantification against the untagged parental strain).

binding	Molecule
binds	Gar1 (from UniProt P28007 1-205)
binds	Cbf5 (from UniProt P33322 1-483)
binds	B1
binds	B2
